The target in the series is LmrR-Strep (Lactococcus lactis) (UniProt A2RI36). Briefly: MST. The settings on record: apparent Kd, MST: 20 mM Tris-HCl pH 8.0, 1 mM EDTA, 50 nM Cy5-DNA, 30 min incubation at 30 C, 30% LED, 40% laser power (30% laser for PlmrR), Hill fit, recombinant protein, protein details: Strep-tag.

Sequences of proteins named here, by UniProt entry; tags and fusion partners are left off.
UniProt A2RI36, entry or part of it: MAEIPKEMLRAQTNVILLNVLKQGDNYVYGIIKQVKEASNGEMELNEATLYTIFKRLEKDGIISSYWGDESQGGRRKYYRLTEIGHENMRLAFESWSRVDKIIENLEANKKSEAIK

The exact form of at least one protein or probe is not confirmed.

The results in this text go back to article PMC4534193, “Binding of the Lactococcal Drug Dependent Transcriptional Regulator LmrR to Its Ligands and Responsive Promoter Regions” (PLoS ONE, 2015).

Take “AAGATTGAGAATAAGGCAACCCATTTATGCTTCATGATTGATTTGAAAATCATAAAATTCCTTTCTAGAGTTAAATAATGTAAACTACTTTACATTAAATTGAATTTTCAATTTCATTTTACTTCAAAATAATTTCAATAAATTTTTTGAGAAGATAATTATAACATTATTTTTTTTAGTAAACAAGCATTAATTGTTAATGCTGTTAAAGATTACAATAGTTAGTTTCATAAATGGTAAACTAACAAAAATATTGTAACGCTTTTTAAAGTTTAAGTCAACGATTTACGACGTTATTTGTATCTTCTTATGTTTTTATAAATTTAGAATTTAAAGTAAGGAATGAATCG (double strand) [PlmrCD (lmrCD promoter/operator region)]”: the Kd is, setting by setting: (50 uM riboflavin, label: 5'-Cy5 on forward strand, probe letters rebuilt from the primers and the genome) 195 nM; (no riboflavin, Hill coefficient 1.78 +/- 0.17, label: 5'-Cy5 on forward strand, probe letters rebuilt from the primers and the genome) 82.1 nM. For the sequence “CTCCTTGTTTTAGGACATTGAGCAAAATTACATTGGTTTGGGCTCGTAACATTTCTTTTGGTATTTCTGCCATTCTTTTTCCTTTCTATCATTTTAAACAAAGTATATTATACTTCACATTACTATGTAAGTCAAGGTACTTAAACTATTTATATAATATTTTATTTTTGACGACTTTCTACTATATAAGATAAGAAAAAATCATCTCCG (double strand) [PlmrR (lmrR promoter/operator region)]”, the Kd (50 uM riboflavin, 30% laser power, probe letters rebuilt from the primers and the …) amounted to 5120 nM.
